Numbering of substitutions follows the chain as printed. Like-named read-outs stand apart in the source and are kept apart here. No constants are given. Whether binding was seen depends on the method and setting. Binding seen in cells or lysates may run through a third protein. Some binding calls cover weakened binding; strength is not graded here. For some of these results: Tags and fused reporters may be left off the sequences shown.

This passage reports binding results from paper doi:10.1101/719815 (bioRxiv, 2019).

Common to all, as to test: split reporter
Assay [1] concerns the target T1, Cdc24 extended by the Cub-RUra3 module (Cdc24CRU) (yeast) (UniProt P11433).
T1 sequence: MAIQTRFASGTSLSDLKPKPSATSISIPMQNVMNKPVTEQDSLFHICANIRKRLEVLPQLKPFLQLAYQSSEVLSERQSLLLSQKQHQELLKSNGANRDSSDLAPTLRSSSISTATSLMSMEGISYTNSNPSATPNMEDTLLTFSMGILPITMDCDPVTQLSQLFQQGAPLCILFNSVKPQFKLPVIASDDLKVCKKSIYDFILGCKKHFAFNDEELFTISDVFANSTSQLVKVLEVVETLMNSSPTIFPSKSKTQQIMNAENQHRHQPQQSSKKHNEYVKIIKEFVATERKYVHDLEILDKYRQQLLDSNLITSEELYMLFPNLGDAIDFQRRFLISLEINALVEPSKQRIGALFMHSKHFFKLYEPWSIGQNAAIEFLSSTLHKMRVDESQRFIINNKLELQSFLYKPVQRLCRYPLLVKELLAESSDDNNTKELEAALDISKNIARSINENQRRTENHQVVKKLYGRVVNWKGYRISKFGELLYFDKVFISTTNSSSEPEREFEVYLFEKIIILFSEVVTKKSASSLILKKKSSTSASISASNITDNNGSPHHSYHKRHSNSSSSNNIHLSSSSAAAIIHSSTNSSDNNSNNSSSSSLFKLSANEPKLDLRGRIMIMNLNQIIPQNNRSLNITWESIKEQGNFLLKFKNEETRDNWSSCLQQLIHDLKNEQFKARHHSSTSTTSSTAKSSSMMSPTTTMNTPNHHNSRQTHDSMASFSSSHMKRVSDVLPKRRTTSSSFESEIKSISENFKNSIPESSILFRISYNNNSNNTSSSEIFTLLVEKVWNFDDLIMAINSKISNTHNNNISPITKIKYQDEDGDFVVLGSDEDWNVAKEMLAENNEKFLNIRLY

Assay [2] has as its target T2, CDC24_(428-759)CRU (yeast) (UniProt P11433).
T2 sequence: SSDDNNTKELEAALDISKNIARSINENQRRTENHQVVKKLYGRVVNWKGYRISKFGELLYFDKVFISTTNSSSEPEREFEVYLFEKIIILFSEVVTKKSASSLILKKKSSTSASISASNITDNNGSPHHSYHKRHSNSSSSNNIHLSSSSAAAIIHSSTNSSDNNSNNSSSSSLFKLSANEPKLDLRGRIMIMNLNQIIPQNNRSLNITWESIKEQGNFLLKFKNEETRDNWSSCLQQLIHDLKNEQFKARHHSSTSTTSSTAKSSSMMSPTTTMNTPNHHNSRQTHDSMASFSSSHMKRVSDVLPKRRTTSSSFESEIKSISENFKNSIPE

The target of assay [3] is T3, Cdc24_(428-854)CRU (yeast) (UniProt P11433).
T3 sequence: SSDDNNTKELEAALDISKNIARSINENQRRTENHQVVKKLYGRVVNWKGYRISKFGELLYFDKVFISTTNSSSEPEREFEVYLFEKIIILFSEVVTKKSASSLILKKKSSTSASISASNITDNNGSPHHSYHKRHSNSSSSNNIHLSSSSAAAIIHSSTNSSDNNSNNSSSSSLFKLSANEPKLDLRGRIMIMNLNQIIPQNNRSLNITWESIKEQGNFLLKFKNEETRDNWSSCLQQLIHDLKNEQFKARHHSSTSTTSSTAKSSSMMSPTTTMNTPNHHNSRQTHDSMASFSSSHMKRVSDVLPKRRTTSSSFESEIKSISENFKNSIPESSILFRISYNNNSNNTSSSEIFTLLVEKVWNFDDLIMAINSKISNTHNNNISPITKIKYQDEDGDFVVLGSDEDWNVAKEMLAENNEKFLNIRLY

Assay [4] has as its target T4, Cdc24_(755-854)CRU (yeast) (UniProt P11433).
T4 sequence: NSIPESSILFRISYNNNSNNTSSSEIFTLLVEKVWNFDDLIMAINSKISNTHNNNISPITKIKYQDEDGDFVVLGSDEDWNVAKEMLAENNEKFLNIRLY

The target of assay [5] is T1, Cdc24 extended by the Cub-RUra3 module (Cdc24CRU) (yeast). This is another data set of the same source.
The target of assay [6] is T5, Cdc24KKCRU (yeast) (UniProt P11433).
T5 sequence: T1 sequence with K525E, K801A

Assay [7] deals with T1, Cdc24 extended by the Cub-RUra3 module (Cdc24CRU) (yeast). The source holds these as a separate data set.

B1: Nub-Rga2 (protein, UniProt Q06407 1-1009)
chain: MSADPINDQSSLCVRCNKSIASSQVYELESKKWHDQCFTCYKCDKKLNADSDFLVLDIGTLICYDCSDKCTNCGDKIDDTAIILPSSNEAYCSNCFRCCRCSNRIKNLKYAKTKRGLCCMDCHEKLLRKKQLLLENQTKNSSKEDFPIKLPERSVKRPLSPTRINGKSDVSTNNTAISKNLVSSNEDQQLTPQVLVSQERDESSLNDNNDNDNSKDREETSSHARTVSIDDILNSTLEHDSNSIEEQSLVDNEDYINKMGEDVTYRLLKPQRANRDSIVVKDPRIPNSNSNANRFFSIYDKEETDKDDTDNKENEIIVNTPRNSTDKITSPLNSPMAVQMNEEVEPPHGLALTLSEATKENNKSSQGIQTSTSKSMNHVSPITRTDTVEMKTSTSSSTLRLSDNGSFSRPQTADNLLPHKKVAPSPNKKLSRSFSLKSKNFVHNLKSKTSEMLDPKHPHHSTSIQESDTHSGWGVSSTHTNIRKSKAKKNPVSRGQSDSTIYNTLPQHGNFTVPEFNHKKAQSSLGSISKKQNSNDTATNRRINGSFTSSSSGHHIAMFRTPPLESGPLFKRPSLSSESAHHRSSSLQTSRSTNALLEDDSTKVDATDESATSLEKDFYFTELTLRKLKLDVRELEGTKKKLLQDVENLRLAKERLLNDVDNLTREKDKQSASSRESLEQKENIATSITVKSPSSNSDRKGSISNASPKPRFWKIFSSAKDHQVGDLESQQRSPNSSSGGTTNIAQKEISSPKLIRVHDELPSPGKVPLSPSPKRLDYTPDGSHLYGSSLQARCAYEKSTVPIIIRCCIDRIEKDDIGLNMEGLYRKSGSQTLVEEIENEFAQNNSLHSDTLSPKLNALLNQDIHAVASVLKRYLRKLPDPVLSFSIYDALIDLVRNNQLIERLPLNNDKFLDSPQKVTIYEMVLKSLLEIFKILPVEHQEVLKVLAAHIGKVRRCSERNLMNLHNLSLVFAPSLIHDFDGEKDIVDMKERNYIVEFILGNYRDIFKQA
With B1, the binding entry in assay [1] is on record as “binds”.

B2: Nub-Bem1 (protein, UniProt P29366 1-551)
chain: MLKNFKLSKRDSNGSKGRITSADISTPSHDNGSVIKHIKTVPVRYLSSSSTPVKSQRDSSPKNRHNSKDITSPEKVIKAKYSYQAQTSKELSFMEGEFFYVSGDEKDWYKASNPSTGKEGVVPKTYFEVFDRTKPSSVNGSNSSSRKVTNDSLNMGSLYAIVLYDFKAEKADELTTYVGENLFICAHHNCEWFIAKPIGRLGGPGLVPVGFVSIIDIATGYATGNDVIEDIKSVNLPTVQEWKSNIARYKASNISLGSVEQQQQQSITKPQNKSAKLVDGELLVKASVESFGLEDEKYWFLVCCELSNGKTRQLKRYYQDFYDLQVQLLDAFPAEAGKLRDAGGQWSKRIMPYIPGPVPYVTNSITKKRKEDLNIYVADLVNLPDYISRSEMVHSLFVVLNNGFDREFERDENQNNIKTLQENDTATFATASQTSNFASTNQDNTLTGEDLKLNKKLSDLSLSGSKQAPAQSTSGLKTTKIKFYYKDDIFALMLKGDTTYKELRSKIAPRIDTDNFKLQTKLFDGSGEEIKTDSQVSNIIQAKLKISVHDI
B2: the binding result is given as “no binding” in assay [2]; “binds” in assay [3]; “binds” in assay [4]; “binds” in assay [5]; “binds” in assay [6].

B3: Nub fusion to Cdc11 lacking the N-terminal five residues (domain or fragment, UniProt P32458 6-415)
chain: DASSALRKRKHLKRGITFTVMIVGQSGSGRSTFINTLCGQQVVDTSTTILLPTDTSTEIDLQLREETVELEDDEGVKIQLNIIDTPGFGDSLDNSPSFEIISDYIRHQYDEILLEESRVRRNPRFKDGRVHCCLYLINPTGHGLKEIDVEFIRQLGSLVNIIPVISKSDSLTRDELKLNKKLIMEDIDRWNLPIYNFPFDEDEISDEDYETNMYLRTLLPFAIIGSNEVYEMGGDVGTIRGRKYPWGILDVEDSSISDFVILRNALLISHLHDLKNYTHEILYERYRTEALSGESVAAESIRPNLTKLNGSSSSSTTTRRNTNPFKQSNNINNDVLNPASDMHGQSTGENNETYMTREEQIRLEEERLKAFEERVQQELLLKRQELLQREKELREIEARLEKEAKIKQEE
With B3, in assay [7], the binding result was “binds”.
